Some of the results follow. Most values lie at the level of the controls, where differences are scatter.
Compound: CN[C@@H]1C[C@H]2O[C@@](C)([C@@H]1OC)n1c3ccccc3c3c4c(c5c6ccccc6n2c5c31)C(=O)NC4 [staurosporine]
Assay: log2 fold change of tryptic peptide abundance, ligand vs vehicle (limited proteolysis) (log2 ratio); higher = more trypsin-susceptible (destabilized)
Settings: ligand concentration: 20 uM; sample: K562 cleared lysate; digestion: 4 min, 22 C (HT-PELSA RT4min, Orbitrap Astral)

By UniProt entry, the sequences of proteins in these tests, tags left out. Where a name states a change or a piece, a line headed by the entry shows the natural chain unless it says otherwise.
UniProt Q9H0K6: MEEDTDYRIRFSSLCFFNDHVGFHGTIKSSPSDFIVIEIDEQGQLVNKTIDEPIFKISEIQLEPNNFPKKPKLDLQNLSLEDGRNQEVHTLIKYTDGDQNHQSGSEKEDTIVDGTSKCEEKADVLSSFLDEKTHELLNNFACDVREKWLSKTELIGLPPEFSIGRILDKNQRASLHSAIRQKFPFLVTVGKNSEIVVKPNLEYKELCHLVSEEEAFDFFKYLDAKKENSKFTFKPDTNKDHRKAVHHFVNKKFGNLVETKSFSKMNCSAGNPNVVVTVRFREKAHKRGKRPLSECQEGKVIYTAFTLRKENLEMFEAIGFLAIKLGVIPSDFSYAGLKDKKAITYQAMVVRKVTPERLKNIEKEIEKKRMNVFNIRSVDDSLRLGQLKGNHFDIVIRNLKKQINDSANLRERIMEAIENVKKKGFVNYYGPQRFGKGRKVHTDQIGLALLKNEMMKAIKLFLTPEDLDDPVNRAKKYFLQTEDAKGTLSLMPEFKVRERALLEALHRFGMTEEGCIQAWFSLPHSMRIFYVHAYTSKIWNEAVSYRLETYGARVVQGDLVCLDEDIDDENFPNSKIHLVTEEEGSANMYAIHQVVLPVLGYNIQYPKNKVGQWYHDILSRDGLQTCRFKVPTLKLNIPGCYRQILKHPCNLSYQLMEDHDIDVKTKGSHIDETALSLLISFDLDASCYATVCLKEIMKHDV
UniProt Q9C005, whole entry: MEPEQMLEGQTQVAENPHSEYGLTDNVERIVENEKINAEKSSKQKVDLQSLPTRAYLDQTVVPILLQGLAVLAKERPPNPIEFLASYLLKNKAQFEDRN
UniProt Q9H2F5, whole entry: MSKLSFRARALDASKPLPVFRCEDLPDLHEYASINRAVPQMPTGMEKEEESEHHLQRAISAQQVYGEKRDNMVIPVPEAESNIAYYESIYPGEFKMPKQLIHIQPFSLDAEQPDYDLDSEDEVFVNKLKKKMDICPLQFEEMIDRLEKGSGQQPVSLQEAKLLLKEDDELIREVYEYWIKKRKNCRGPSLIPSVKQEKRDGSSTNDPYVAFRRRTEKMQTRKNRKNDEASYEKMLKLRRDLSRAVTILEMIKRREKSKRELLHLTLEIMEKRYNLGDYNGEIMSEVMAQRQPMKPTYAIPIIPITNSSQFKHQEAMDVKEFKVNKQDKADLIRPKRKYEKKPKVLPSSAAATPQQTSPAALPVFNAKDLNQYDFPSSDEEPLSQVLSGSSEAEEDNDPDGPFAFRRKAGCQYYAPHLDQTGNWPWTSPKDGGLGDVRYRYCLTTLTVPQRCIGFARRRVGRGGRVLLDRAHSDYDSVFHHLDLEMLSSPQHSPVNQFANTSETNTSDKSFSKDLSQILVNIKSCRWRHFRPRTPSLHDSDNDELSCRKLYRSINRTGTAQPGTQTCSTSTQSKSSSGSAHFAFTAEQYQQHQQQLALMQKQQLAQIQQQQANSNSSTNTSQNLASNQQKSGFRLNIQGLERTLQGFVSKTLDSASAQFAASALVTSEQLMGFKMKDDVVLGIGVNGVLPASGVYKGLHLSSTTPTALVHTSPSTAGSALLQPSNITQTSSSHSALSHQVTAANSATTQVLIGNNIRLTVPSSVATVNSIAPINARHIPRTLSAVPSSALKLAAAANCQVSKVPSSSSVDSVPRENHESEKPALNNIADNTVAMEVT
UniProt Q9GZN1, whole entry: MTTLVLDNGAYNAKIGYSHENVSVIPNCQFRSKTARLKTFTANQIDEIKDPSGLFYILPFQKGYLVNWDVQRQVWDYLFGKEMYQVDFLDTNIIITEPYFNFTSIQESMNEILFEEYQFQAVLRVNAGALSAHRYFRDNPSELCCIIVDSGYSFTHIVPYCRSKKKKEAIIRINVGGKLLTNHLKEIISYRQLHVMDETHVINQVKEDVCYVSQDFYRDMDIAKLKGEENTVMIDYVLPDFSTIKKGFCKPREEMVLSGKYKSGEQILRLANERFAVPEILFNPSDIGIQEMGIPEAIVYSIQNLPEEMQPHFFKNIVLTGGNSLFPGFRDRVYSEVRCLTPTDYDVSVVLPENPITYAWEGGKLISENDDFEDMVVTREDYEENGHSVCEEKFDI
UniProt Q9BYN0: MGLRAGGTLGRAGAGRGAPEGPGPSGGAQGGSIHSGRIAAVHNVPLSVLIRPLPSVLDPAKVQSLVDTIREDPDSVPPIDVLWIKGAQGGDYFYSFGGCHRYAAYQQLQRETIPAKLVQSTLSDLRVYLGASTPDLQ
UniProt Q9H019: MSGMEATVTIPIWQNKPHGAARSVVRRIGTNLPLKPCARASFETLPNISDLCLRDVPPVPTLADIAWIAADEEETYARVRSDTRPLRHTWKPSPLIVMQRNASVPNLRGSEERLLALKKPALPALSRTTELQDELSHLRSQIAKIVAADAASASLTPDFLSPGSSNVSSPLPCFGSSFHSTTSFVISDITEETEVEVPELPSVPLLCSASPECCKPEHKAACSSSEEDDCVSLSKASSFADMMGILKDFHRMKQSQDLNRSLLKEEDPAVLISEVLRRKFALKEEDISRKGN
UniProt Q9H0B6: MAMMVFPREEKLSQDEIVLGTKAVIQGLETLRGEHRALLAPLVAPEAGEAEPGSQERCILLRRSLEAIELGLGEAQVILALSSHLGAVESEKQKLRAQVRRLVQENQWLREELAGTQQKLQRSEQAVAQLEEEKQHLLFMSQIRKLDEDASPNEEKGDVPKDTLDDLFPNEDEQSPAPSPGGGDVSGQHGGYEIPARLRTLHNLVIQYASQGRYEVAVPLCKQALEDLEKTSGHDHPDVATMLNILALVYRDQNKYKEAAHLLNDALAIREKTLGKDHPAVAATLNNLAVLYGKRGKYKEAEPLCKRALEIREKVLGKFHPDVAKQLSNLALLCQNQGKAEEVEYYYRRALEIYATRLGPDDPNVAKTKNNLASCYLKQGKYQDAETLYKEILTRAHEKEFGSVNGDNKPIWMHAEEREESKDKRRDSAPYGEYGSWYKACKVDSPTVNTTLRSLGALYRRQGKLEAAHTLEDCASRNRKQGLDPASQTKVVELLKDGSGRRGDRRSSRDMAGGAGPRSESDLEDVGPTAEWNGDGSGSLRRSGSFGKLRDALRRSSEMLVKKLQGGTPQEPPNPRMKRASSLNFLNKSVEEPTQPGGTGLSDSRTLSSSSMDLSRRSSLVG
UniProt Q9GZS1, whole entry: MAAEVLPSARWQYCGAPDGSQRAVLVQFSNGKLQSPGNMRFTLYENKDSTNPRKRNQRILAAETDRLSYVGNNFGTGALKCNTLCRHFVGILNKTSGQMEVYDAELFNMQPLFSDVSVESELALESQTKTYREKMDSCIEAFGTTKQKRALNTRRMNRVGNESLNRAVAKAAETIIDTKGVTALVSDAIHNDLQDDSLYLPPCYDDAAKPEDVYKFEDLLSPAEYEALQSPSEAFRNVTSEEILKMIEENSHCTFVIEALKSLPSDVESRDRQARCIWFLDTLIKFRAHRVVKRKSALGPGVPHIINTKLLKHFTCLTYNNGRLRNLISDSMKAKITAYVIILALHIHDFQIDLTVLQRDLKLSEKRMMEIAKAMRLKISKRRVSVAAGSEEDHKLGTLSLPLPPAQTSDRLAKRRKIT
UniProt Q9H307: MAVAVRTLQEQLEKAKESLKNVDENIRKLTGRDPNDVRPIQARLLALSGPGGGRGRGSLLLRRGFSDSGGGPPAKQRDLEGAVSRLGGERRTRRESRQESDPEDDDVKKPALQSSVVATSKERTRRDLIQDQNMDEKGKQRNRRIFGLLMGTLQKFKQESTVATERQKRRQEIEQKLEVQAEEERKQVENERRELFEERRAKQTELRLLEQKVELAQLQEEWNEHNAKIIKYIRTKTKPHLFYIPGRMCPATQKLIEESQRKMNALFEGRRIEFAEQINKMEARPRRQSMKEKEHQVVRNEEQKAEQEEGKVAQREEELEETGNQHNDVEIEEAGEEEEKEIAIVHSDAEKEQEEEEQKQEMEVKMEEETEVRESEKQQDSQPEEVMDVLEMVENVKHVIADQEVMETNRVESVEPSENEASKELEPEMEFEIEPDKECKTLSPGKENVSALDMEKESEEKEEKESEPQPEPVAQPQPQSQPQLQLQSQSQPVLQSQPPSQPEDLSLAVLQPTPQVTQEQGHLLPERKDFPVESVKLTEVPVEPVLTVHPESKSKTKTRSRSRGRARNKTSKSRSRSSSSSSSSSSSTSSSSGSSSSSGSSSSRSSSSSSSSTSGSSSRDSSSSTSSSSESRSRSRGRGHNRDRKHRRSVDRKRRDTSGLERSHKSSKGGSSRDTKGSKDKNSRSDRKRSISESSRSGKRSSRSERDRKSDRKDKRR
UniProt Q9BZQ6: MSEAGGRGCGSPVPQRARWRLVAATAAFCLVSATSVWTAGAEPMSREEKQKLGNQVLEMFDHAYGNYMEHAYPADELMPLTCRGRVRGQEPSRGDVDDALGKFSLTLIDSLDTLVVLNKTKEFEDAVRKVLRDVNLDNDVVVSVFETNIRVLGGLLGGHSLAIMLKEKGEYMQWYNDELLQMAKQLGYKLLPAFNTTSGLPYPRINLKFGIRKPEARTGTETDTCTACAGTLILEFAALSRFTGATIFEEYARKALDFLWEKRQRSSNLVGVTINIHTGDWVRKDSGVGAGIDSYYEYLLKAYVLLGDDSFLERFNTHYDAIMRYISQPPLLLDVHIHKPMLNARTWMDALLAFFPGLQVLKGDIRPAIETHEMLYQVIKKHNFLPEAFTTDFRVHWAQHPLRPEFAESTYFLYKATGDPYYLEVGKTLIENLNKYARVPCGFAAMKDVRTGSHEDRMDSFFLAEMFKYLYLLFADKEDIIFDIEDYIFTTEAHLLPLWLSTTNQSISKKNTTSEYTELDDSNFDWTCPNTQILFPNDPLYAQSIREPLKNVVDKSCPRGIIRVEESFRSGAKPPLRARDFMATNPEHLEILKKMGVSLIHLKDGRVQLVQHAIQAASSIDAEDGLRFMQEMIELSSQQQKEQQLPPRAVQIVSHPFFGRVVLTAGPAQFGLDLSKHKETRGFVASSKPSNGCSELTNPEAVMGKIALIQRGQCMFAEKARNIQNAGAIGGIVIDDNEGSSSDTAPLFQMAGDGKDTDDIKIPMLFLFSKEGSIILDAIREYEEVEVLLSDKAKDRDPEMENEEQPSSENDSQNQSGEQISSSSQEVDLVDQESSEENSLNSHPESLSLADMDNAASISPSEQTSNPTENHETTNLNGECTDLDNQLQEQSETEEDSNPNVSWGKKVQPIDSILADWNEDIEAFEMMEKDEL
UniProt Q9H0U9: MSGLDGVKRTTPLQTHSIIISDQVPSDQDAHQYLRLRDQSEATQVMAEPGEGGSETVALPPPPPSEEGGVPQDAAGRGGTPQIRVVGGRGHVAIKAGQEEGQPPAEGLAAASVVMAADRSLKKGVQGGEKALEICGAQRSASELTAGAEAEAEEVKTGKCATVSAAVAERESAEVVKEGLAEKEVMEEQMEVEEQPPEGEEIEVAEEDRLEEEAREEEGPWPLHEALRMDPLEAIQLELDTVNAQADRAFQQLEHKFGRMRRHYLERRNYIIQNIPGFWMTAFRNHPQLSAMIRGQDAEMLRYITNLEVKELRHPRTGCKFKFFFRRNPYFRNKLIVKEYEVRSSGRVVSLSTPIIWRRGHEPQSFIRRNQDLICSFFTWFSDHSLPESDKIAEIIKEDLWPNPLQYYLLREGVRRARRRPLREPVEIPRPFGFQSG
UniProt Q9H3N1: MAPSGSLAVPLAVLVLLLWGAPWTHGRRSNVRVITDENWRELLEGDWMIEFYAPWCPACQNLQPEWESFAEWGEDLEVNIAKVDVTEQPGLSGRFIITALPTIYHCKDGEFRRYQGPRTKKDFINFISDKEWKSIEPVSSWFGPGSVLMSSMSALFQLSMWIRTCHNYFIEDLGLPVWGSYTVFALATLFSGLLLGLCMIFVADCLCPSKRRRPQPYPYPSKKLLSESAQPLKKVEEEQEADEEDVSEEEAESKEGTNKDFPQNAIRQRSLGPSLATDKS
UniProt Q9BWW4: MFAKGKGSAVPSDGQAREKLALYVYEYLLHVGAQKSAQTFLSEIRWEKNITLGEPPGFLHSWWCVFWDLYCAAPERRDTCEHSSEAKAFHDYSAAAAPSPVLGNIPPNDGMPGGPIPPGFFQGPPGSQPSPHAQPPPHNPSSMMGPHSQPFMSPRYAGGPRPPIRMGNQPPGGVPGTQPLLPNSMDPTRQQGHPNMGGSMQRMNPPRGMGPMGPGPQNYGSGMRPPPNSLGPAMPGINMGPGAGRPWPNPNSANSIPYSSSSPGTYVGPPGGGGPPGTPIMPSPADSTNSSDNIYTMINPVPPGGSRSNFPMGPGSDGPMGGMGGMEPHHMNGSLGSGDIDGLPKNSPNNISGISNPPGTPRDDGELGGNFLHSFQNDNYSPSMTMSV
UniProt Q9H3R5: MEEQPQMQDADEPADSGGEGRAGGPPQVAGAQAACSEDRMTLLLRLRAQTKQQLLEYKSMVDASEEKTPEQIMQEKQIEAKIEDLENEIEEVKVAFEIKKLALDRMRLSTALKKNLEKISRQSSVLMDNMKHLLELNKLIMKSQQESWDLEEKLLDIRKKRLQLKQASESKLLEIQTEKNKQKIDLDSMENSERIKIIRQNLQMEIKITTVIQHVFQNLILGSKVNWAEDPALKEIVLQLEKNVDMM

Target | log2 fold change
RBM38 (peptide sequence: IFVGGLPYHTTDASLRK, peptide start residue: 36) (UniProt Q9H0Z9) | -0.846
PUS7L (peptide sequence: NQEVHTLIK, peptide start residue: 85) (UniProt Q9H0K6) | -0.276
DPY30 (peptide sequence: AQFEDRN, peptide start residue: 93) (UniProt Q9C005) | -0.171
FUNDC2 (peptide sequence: AGSQVVATTAR, peptide start residue: 8) (UniProt Q9BWH2) | -0.158
EPC1 (peptide sequence: EVYEYWIK, peptide start residue: 173) (UniProt Q9H2F5) | -0.506
UniProt Q9GZP4 (peptide sequence: HEVTICNYEASANPADHR, peptide start residue: 182) | -0.198
TMEM59 (peptide sequence: SKTEDHEEAGPLPTK, peptide start residue: 301) (UniProt Q9BXS4) | -0.27
COMMD5 (peptide sequence: FVVSSLQGEDCREAVQR, peptide start residue: 54) (UniProt Q9GZQ3) | -0.305
UniProt Q9BWW9 (peptide sequence: LEQELDR, peptide start residue: 336) | 0.0246
DSN1 (peptide sequence: SMQQLDPSPARK, peptide start residue: 324) (UniProt Q9H410) | 0.442
POLR2J3 (peptide sequence: VPHPLEHK, peptide start residue: 63) (UniProt Q9H1A7) | 0.729
FOXP1 (peptide sequence: TSLIMNPHASTNGQLSVHTPK, peptide start residue: 267) (UniProt Q9H334) | -0.221
ING2 (peptide sequence: DLCHMANGIEDCDDQPPKEKK, peptide start residue: 162) (UniProt Q9H160) | 0.916
UniProt Q9C0A6 (peptide sequence: SVYSTHNYGTTQR, peptide start residue: 38) | -0.383
STMN4 (peptide sequence: MESNKENR, peptide start residue: 149) (UniProt Q9H169) | 0.574
UniProt Q9C0B7 (peptide sequence: AVPSLHSLCQFR, peptide start residue: 529) | 0.163
ACTR6 (peptide sequence: GFCKPREEMVLSGK, peptide start residue: 247) (UniProt Q9GZN1) | -0.724
CCDC8 (peptide sequence: INWASFR, peptide start residue: 269) (UniProt Q9H0W5) | -0.246

Target | log2 fold change
SRXN1 (peptide sequence: LVQSTLSDLR, peptide start residue: 117) (UniProt Q9BYN0) | 0.149
YIPF3 (peptide sequence: QVADQMWQAGKR, peptide start residue: 92) (UniProt Q9GZM5) | -0.0959
UniProt Q9H019 (peptide sequence: KPALPALSR, peptide start residue: 119) | 0.642
SHARPIN (peptide sequence: SPGNLTEREELAGSLAR, peptide start residue: 165) (UniProt Q9H0F6) | -0.181
KLC2 (peptide sequence: VDSPTVNTTLR, peptide start residue: 443) (UniProt Q9H0B6) | 0.201
POLR1E (peptide sequence: FTLYENKDSTNPR, peptide start residue: 41) (UniProt Q9GZS1) | -0.288
PNN (peptide sequence: KMNALFEGR, peptide start residue: 262) (UniProt Q9H307) | -0.295
EDEM3 (peptide sequence: HNFLPEAFTTDFR, peptide start residue: 382) (UniProt Q9BZQ6) | -0.249
TSPYL1 (peptide sequence: AFQQLEHK, peptide start residue: 249) (UniProt Q9H0U9) | 0.346
UniProt Q9H3N1 (peptide sequence: LLSESAQPLK, peptide start residue: 224) | -0.0582
SPNS1 (peptide sequence: STRVPVASVLI, peptide start residue: 518) (UniProt Q9H2V7) | -0.119
NXF2 (peptide sequence: DSAPSSLCK, peptide start residue: 431) (UniProt Q9GZY0) | -0.394
UniProt Q9BWW4 (peptide sequence: QQGHPNMGGSMQR, peptide start residue: 190) | 0.131
ILKAP (peptide sequence: RCGVTSVPDIRR, peptide start residue: 300) (UniProt Q9H0C8) | -0.979
TRIM5 (peptide sequence: SLTNSETEMVQQTQSLR, peptide start residue: 213) (UniProt Q9C035) | 0.166
MAK16 (peptide sequence: SSCPLANSQYATIKEEK, peptide start residue: 42) (UniProt Q9BXY0) | 0.59
CDCA4 (peptide sequence: SVLIANTVR, peptide start residue: 59) (UniProt Q9BXL8) | 0.189
CENPH (peptide sequence: IEDLENEIEEVKVAFEIKK, peptide start residue: 82) (UniProt Q9H3R5) | 0.365

A few values from the results shown.
POLR2J3 (peptide sequence: VPHPLEHK, peptide start residue: 63) (UniProt Q9H1A7) – log2 fold change: 0.729
FUNDC2 (peptide sequence: AGSQVVATTAR, peptide start residue: 8) (UniProt Q9BWH2) – log2 fold change: -0.158
